# Measurements from PubChem BioAssay AID493014 (National Center for Advancing Translational Sciences (NCATS), 2011).
# Out of some 340,000 compounds screened, about 170 (0.05%) were called active. This list was built around the results that the source calls inconclusive (neither active nor inactive); the mix of calls is not that of the screen. Calls come from the whole dose curve; as a rule, active = well fitted inhibition curve with a large enough effect in the signal ratio, with a control signal flat (not every such curve was filed as active); inconclusive = small, poorly fitted or top-dose-only effect, or effect the other way, or a change in a side signal; inactive = flat fitted curve, though single readings scatter; the % refers to the signal ratio. Where the call is inconclusive, the potency comes from a doubtful curve fit.
# Test: qHTS Assay to Find Inhibitors of Chronic Active B-Cell Receptor Signaling;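 for activity change, negative = inhibition: plate controls were basal doxycycline-induced cells for no effect and cells given 10 µM MG132 for full effect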
# Settings: ABC-DLBCL IkBa-CBG/CBR reporter, luminescence ratio (green luciferase fused to IkBa over red control in TMD8 lymphoma cells), 4 h; activity change, negative = inhibition: at 46.1 µM (top of the series)
# Method in brief: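 TMD8 ABC-DLBCL cells carrying doxycycline-inducible green luciferase fused to IkappaBalpha plus unfused red luciferase were exposed to compounds (up to 46 uM) for 4 hrs at 37C. Activity came from the overlap-corrected green/red luminescence ratio.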
# Potency is the fitted concentration of half-maximal effect.
Structure (SMILES),Potency,"activity change, negative = inhibition"
C/C(=N/NC(=O)c1sc(NS(=O)(=O)c2ccccc2)nc1C)c1sc(N)nc1C,"inconclusive: 15.8 µM [falling, single point]",–
COc1ccc(Cn2c(CCC(=O)Nc3ccc(CC#N)cc3)nc3cccnc32)cc1,–,inconclusive: 4.88%
Cc1ccc(NC(=O)CSc2nnc(-c3cc(C)[nH]n3)n2N)c(C)c1,–,inactive
O=C(c1cccnc1)N1CCN(Cc2cccc(F)c2)CC1,–,inconclusive: 15.9%
CCSc1nc2c(c(-c3ccc(C)o3)c1C#N)CCCC2,–,inconclusive: 29.7%
Cc1cc(-c2nc(C)c(C(=O)NNS(=O)(=O)c3ccc(Cl)cc3Cl)s2)no1,–,inconclusive: -18.2%
COc1ccc([C@@H]2[C@@H]3C(=O)N(C(C)(C)C)C(=O)[C@@H]3[C@]3(Cc4ccccc4)C(=O)N(c4ccc(C)cc4)C(=O)N23)cc1,–,inactive
COc1ccc(-c2cc(C(=O)N3CCN(Cc4ccccc4)CC3)no2)cc1OC,"inconclusive: 20.6 µM [falling, partial curve]",–
COc1ccccc1OCC(=O)NCCC1=CCCCC1,–,inconclusive: 3.7%
C/C(=C\C(=O)c1ccccc1)Nc1ccc(Br)c(Cl)c1,"inconclusive: 3.55 µM [rising, partial curve, poor fit]",–
O=C(N/N=C/c1cccnc1)c1ccc2ccccc2c1O,"inconclusive: 22.4 µM [falling, single point]",–
C[C@@]12CCC=C[C@H]1[C@H](c1ccc(F)c(/C=C/c3ccccc3)c1)N(Cc1ccccc1)C2=O,–,inactive
Cc1ccc(C(=O)N/N=C\c2ccccc2[N+](=O)[O-])cn1,"inconclusive: 22.4 µM [falling, partial curve]",–
C=CCNc1nc(-c2cccc(OC)c2O)nc2ccccc12,–,inactive
O=C(C1CCCN(S(=O)(=O)c2cccc3nsnc23)C1)N1CC=C(c2ccccc2)CC1 (centres undefined),–,inactive
O=C(Nc1ccc2c(c1)C(=O)NC2=O)c1ccccc1,"inconclusive: 22.4 µM [falling, partial curve]",–
N#Cc1cc2c(nc1SCc1ccc(Cl)nc1)CCCCC2,–,inconclusive: -1.53%
Cc1onc(-c2ccccc2Cl)c1C(=O)Nc1ccc(N2CCOCC2)cc1,"inconclusive: 35.5 µM [falling, partial curve, poor fit]",–
Cc1ccc(S(=O)(=O)n2ccc(OC(=O)c3cccs3)n2)cc1,–,inconclusive: -24.1%
COc1ccc(C(=O)OCC(=O)c2ccc(F)cc2)cc1OC,–,inconclusive: -22.6%
CCOc1ccccc1NC(=O)CCc1ccc(C)o1,–,inconclusive: -14.9%
Oc1ccc(Br)cc1/C=N/N1CCCCC1,–,inconclusive: 4.98%
Cn1ncc2c(NCc3ccccc3)ncnc21,–,inactive
CC[C@]12c3[nH]c4cc(CCC(=O)N(C)C)ccc4c3CCN1C(=O)[C@@H](CC(=O)NCc1ccc(OC)c(OC)c1)C[C@@H]2C(=O)N1CCN(C(=O)c2ccco2)CC1,–,inconclusive: -1.82%
CS(=O)(=O)Nc1cccc(C2=NN(S(=O)(=O)c3ccc(F)cc3)C(c3cccs3)C2)c1 (centres undefined),–,inconclusive: -9.74%

# Some values from the entries so far:
# O=C(Nc1ccc2c(c1)C(=O)NC2=O)c1ccccc1 | Potency: inconclusive: 22.4 µM [falling, partial curve]
# COc1ccc(-c2cc(C(=O)N3CCN(Cc4ccccc4)CC3)no2)cc1OC | Potency: inconclusive: 20.6 µM [falling, partial curve]
# CCOc1ccccc1NC(=O)CCc1ccc(C)o1 | activity change, negative = inhibition: inconclusive: -14.9%
# O=C(N/N=C/c1cccnc1)c1ccc2ccccc2c1O | Potency: inconclusive: 22.4 µM [falling, single point]

# (continued)

Structure (SMILES),Potency,"activity change, negative = inhibition"
CCCC(=O)Nc1nc(C)c(-c2csc(Nc3ccc(Cl)cc3)n2)s1,–,inconclusive: 20.8%
COc1cc(-c2csc(NC3CCCCC3)n2)cc(OC)c1OC,"inconclusive: 17.8 µM [falling, partial curve, poor fit]",–
CC1C/C(=N\NC(=S)NCc2ccccc2)CC(C)(C)C1 (centres undefined),–,inactive
CCN(CC(=O)Nc1sc2c(c1C#N)CCC(C)C2)CC(=O)NC1CCS(=O)(=O)C1 (centres undefined),–,inconclusive: 8.7%
Cc1sc2nc3c(C(=O)N4CCCC4)cc(C(=O)c4ccccc4O)cn3c(=O)c2c1C,–,inconclusive: -2.41%
COc1cccc(-c2nn(-c3ccccc3)cc2CN(C)Cc2ccon2)c1,"inconclusive: 7.94 µM [falling, partial curve, poor fit]",–
Cc1nc2ccccn2c1C(=O)N/N=C/c1ccccc1[N+](=O)[O-],–,inactive
COc1ccccc1NC(=O)Nc1ccc(C)cn1,"inconclusive: 15.8 µM [falling, single point]",–
Cc1cc(C)c(C(=O)OCc2csc(CC(=O)Nc3ccccc3C)n2)c(C)c1,–,inconclusive: -3.97%
CCCCNC(=O)N(O)C1N(/N=C/c2ccccc2F)C(=S)SC1(C)C (centres undefined),–,inconclusive: -1.06%
O=C(c1nc[nH]c1C(=O)N1CCN(c2ccccc2)CC1)N1CCN(c2ccccc2)CC1,–,inactive
O=C(NCCCn1ccnc1)Nc1ccc(Cl)c(Cl)c1,–,inconclusive: 4.57%
CCN(c1ccccc1)S(=O)(=O)c1ccc(C(=O)Nc2ncccc2C)cc1,–,inconclusive: 7.06%
COc1cc(OC)cc(C(=O)/C=C2\Sc3ccccc3N2C)c1,"inconclusive: 12.6 µM [falling, partial curve]",–
O=C(Nc1c(Cl)ccc2nsnc12)c1ccc([N+](=O)[O-])o1,"inconclusive: 12.6 µM [falling, partial curve]",–
Cc1cccc(C)c1NC(=S)N1CCC(c2ccccc2)C1 (centres undefined),–,inactive
COc1cc(CNCCc2ccccc2F)ccc1OCC(=O)N1CCCCC1,–,inactive
CC(=O)c1ccc(S(=O)(=O)N(C)CCCC(=O)N(C)Cc2ccccc2F)cc1,–,inconclusive: 12.7%
Cc1ccccc1C(=O)NNC(=O)C1CCN(C(=O)Nc2ccccc2)CC1,"inconclusive: 18.4 µM [falling, single point]",–
Cc1cccc(-c2noc(CCCC(=O)Nc3cccnc3)n2)c1,"inconclusive: 0.0891 µM [rising, full curve, poor fit]",–
COC(=O)c1ccc(Oc2c(Cl)cccc2[N+](=O)[O-])cc1,–,inconclusive: 0.836%
Cc1ccc(/C=C/C(=O)Nc2cc(S(N)(=O)=O)ccc2O)cc1,"inconclusive: 35.5 µM [falling, partial curve]",–
Cc1ccc(S(=O)(=O)Nc2c(O)c3ccccc3oc2=O)cc1,"inconclusive: 28.2 µM [falling, single point]",–
O=c1c2ccccc2nc2sc3ccccc3n12,"inconclusive: 2.91 µM [rising, partial curve, poor fit]",–
